Experimental data: PubChem BioAssay AID1259254 (NCATS, 2017)

- Purpose: 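Finding genes that stop cells copying their DNA twice in one cycle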 (primary screen)
- System: human HCT116 colorectal cancer cells
- Reagents: single siRNA against human genes
- Timing: 3 days
- Measurement: 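Nuclei stained with Hoechst and imaged; cell-cycle phase assigned by DNA content; G2 share scaled per plate, non-targeting siRNA 0%, GMNN siRNA 100%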
- Reading the numbers: G2 robust z-score and G2 cells, % of GMNN control: higher = more G2 cells, more excess DNA replication
- Hit rule: 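Active siRNAs have a G2 robust z of 5 or more median absolute deviations over the median, which in these data means about 38% or higher of GMNN control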
Here is a random part of about 59,000 deposited reagents. Over the whole deposit, about 1,550 (2.6%) were called active. 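G2 share is only a proxy for re-replication; each gene was hit by three separate siRNAs, and active genes were retested.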 Reagents against one gene are numbered here. Further read-outs or replicates are left out here. No sequences are given here. Not stated in the record: the amount of reagent.

no.	gene knocked down	siRNA no.	G2 robust z-score	G2 cells, % of GMNN control	call
1	IRF2	1	-0.288	0.938	inactive
2	IRF2	2	-0.938	-3.63	inactive
3	IRF2	3	0.443	6.09	inactive
4	PSIP1	1	-0.951	-3.72	inactive
5	PSIP1	2	1.75	15.3	inactive
6	PSIP1	3	0.695	7.86	inactive
7	RAB37	1	0.734	8.13	inactive
8	RAB37	2	-0.973	-3.88	inactive
9	RAB37	3	2.75	22.3	inactive
10	TIMM23B	1	-0.543	-0.854	inactive
11	TIMM23B	2	-0.346	0.53	inactive
12	TIMM23B	3	0.438	6.05	inactive
13	TIMM23B	4	0.0402	3.25	inactive
14	TIMM23B	5	1.11	10.8	inactive
15	TIMM23B	6	0.304	5.11	inactive
16	PJVK	1	0.0876	3.58	inactive
17	PJVK	2	-0.213	1.47	inactive
18	PJVK	3	0.746	8.22	inactive
19	IL19	1	1.05	10.3	inactive
20	IL19	2	0.0989	3.66	inactive
21	IL19	3	2.32	19.3	inactive
22	CRYL1	1	-0.857	-3.06	inactive
23	CRYL1	2	-0.0622	2.53	inactive
24	CRYL1	3	-1.11	-4.81	inactive
25	ANXA2R	1	-0.909	-3.43	inactive
26	ANXA2R	2	-0.68	-1.82	inactive
27	ANXA2R	3	-0.861	-3.09	inactive
28	ERICH3	1	0.404	5.81	inactive
29	ERICH3	2	0.719	8.02	inactive
30	ERICH3	3	-0.88	-3.23	inactive
31	USP16	1	0.688	7.81	inactive
32	USP16	2	-1.31	-6.25	inactive
33	USP16	3	0.277	4.92	inactive
34	POLR3GL	1	0.567	6.95	inactive
35	POLR3GL	2	-0.99	-4	inactive
36	POLR3GL	3	0.354	5.45	inactive
37	UBE4B	1	0.733	8.12	inactive
38	UBE4B	2	0.724	8.06	inactive
39	UBE4B	3	0.678	7.74	inactive
40	KRT42P	1	0.936	9.55	inactive
41	KRT42P	2	2.37	19.7	inactive
42	KRT42P	3	0.442	6.08	inactive
43	TEX46	1	0.204	4.4	inactive
44	TEX46	2	-0.512	-0.635	inactive
45	TEX46	3	1.89	16.3	inactive
46	NHEJ1	1	-0.997	-4.05	inactive
47	NHEJ1	2	4.44	34.2	inactive
48	NHEJ1	3	-0.497	-0.53	inactive
49	EGR3	1	0.164	4.12	inactive
50	EGR3	2	-0.567	-1.02	inactive
51	EGR3	3	-0.68	-1.82	inactive
52	FTH1	1	0.00746	3.02	inactive
53	FTH1	2	-0.666	-1.72	inactive
54	FTH1	3	12.3	89.5	active
55	ST8SIA3	1	-0.774	-2.48	inactive
56	ST8SIA3	2	0.682	7.76	inactive
57	ST8SIA3	3	-0.894	-3.32	inactive
58	TEKTL1	1	-0.833	-2.9	inactive
59	TEKTL1	2	6.32	47.4	active
60	TEKTL1	3	-0.172	1.76	inactive
61	FCER1A	1	-0.598	-1.24	inactive
62	FCER1A	2	-1.01	-4.15	inactive
63	FCER1A	3	-1.12	-4.94	inactive
64	PELI1	1	1.25	11.7	inactive
65	PELI1	2	1.6	14.2	inactive
66	PELI1	3	0.174	4.19	inactive
67	AVPR2	1	-0.912	-3.45	inactive
68	AVPR2	2	1.15	11.1	inactive
69	AVPR2	3	0.336	5.33	inactive
70	NDUFB7	1	0.614	7.29	inactive
71	NDUFB7	2	1.5	13.5	inactive
72	NDUFB7	3	-1.27	-5.98	inactive
73	NUDCD2	1	-0.309	0.796	inactive
74	NUDCD2	2	1.2	11.4	inactive
75	NUDCD2	3	-0.76	-2.38	inactive
76	COG3	1	0.811	8.67	inactive
77	COG3	2	-0.646	-1.58	inactive
78	COG3	3	0.589	7.11	inactive
79	MAGEB18	1	-0.0129	2.88	inactive
80	MAGEB18	2	-0.371	0.355	inactive
81	MAGEB18	3	-0.00573	2.93	inactive
82	DENND6A	1	-0.539	-0.822	inactive
83	DENND6A	2	0.892	9.24	inactive
84	DENND6A	3	-0.783	-2.54	inactive
85	BSX	1	-0.396	0.184	inactive
86	BSX	2	0.0194	3.1	inactive
87	BSX	3	4.98	38	inactive
